# Assay results as given in article PMC10205607, “MAP4K3 inhibits Sirtuin-1 to repress the LKB1–AMPK pathway to promote amino acid-dependent activation of the mTORC1 complex” (Life Science Alliance, 2023).
# The chains behind the UniProt entries cited, without tags or fusion partners. Where a name states a change or a piece, a line headed by the entry shows the natural chain unless it says otherwise.
# UniProt Q8IVH8: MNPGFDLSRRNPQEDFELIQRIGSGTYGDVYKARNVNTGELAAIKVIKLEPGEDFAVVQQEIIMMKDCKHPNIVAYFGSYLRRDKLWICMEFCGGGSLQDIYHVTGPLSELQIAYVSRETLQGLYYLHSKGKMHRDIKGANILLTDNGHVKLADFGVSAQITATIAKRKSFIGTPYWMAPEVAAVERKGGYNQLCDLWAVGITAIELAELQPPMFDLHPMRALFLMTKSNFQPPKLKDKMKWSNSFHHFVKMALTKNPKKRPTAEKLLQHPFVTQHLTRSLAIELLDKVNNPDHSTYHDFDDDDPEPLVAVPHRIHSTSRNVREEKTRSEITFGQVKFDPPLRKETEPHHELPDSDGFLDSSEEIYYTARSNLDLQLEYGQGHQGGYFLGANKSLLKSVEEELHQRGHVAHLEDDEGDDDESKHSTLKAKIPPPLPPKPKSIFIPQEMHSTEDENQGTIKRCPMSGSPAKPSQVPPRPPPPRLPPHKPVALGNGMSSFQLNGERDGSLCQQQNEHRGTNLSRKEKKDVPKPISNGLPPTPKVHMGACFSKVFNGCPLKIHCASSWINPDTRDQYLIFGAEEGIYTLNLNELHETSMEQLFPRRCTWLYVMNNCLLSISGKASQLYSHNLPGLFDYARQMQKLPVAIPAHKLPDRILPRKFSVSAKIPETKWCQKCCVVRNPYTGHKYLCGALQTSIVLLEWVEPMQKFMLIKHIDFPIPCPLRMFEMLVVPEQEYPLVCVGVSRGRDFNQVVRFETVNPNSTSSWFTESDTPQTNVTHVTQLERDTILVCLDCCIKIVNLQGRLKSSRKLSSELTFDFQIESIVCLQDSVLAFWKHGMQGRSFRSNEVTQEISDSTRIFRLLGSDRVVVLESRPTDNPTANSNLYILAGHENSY
# UniProt Q96EB6: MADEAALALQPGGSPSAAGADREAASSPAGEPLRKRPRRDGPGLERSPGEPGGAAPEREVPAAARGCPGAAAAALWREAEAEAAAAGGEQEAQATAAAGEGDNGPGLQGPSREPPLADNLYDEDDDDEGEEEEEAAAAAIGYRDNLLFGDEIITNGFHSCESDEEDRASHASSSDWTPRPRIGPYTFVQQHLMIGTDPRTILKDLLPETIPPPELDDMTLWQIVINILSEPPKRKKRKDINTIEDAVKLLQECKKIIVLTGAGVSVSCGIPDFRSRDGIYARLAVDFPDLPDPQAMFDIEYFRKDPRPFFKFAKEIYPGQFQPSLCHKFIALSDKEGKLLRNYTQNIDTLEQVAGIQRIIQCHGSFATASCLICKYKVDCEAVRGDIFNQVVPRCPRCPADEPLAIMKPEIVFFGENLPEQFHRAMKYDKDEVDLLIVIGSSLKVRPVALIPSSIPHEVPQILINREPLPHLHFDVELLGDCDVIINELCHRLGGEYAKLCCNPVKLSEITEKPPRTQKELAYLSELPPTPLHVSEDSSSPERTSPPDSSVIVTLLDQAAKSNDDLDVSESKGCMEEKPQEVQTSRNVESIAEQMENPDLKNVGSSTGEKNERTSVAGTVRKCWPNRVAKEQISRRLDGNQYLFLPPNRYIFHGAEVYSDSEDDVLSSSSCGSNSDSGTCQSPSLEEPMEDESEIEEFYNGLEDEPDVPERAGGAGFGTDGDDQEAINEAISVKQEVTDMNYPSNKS
# Target: kinase dead (KD)-MAP4K3-FLAG (UniProt Q8IVH8)
# Assay: co-IP; anti-FLAG IP from lysates of co-transfected HEK293A cells (WT or MAP4K3 k.o.), blot with anti-HA and anti-FLAG; lysis buffer 25 mM HEPES-KOH pH 7.4, 150 mM NaCl, 5 mM EDTA, 1% Triton X-100; 2 h at 4°C
row,Substance,binding
1,SIRT1:1–465 (HA-tagged) (from UniProt Q96EB6 1-465) (domain or fragment),binds
2,SIRT1:1–698 (HA-tagged) (from UniProt Q96EB6 1-698) (domain or fragment),binds

# Continued, values first:
row,binding,Substance
1,no binding,SIRT1:1–114 (HA-tagged) (from UniProt Q96EB6 1-114) (domain or fragment)
2,binds,SIRT1:142–747 (HA-tagged) (from UniProt Q96EB6 142-747) (domain or fragment)
3,no binding,SIRT1:465–747 (HA-tagged) (from UniProt Q96EB6 465-747) (domain or fragment)

# These are yes or no findings as the source states them, for the method shown. In cells and extracts the contact can be indirect. Binding can be weak; no strength is given.
